Data from the supplement of paper PMC10849652.
The list shows a part of the results. Residues, ends and D or L forms follow the SMILES beside them. *: point of attachment. Cbz = O=C(OCc1ccccc1)*

The chains behind the UniProt entries cited, without tags or fusion partners. Where a name states a change or a piece, a line headed by the entry shows the natural chain unless it says otherwise.
UniProt O60683: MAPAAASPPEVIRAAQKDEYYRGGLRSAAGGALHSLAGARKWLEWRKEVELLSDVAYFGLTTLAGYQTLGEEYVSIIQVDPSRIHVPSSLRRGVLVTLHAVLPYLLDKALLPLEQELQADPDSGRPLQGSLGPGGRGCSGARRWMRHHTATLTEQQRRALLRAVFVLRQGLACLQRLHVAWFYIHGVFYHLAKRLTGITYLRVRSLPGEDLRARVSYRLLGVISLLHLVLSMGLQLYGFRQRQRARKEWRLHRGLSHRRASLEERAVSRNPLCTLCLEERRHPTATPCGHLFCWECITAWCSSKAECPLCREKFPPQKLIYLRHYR
UniProt Q8TE04: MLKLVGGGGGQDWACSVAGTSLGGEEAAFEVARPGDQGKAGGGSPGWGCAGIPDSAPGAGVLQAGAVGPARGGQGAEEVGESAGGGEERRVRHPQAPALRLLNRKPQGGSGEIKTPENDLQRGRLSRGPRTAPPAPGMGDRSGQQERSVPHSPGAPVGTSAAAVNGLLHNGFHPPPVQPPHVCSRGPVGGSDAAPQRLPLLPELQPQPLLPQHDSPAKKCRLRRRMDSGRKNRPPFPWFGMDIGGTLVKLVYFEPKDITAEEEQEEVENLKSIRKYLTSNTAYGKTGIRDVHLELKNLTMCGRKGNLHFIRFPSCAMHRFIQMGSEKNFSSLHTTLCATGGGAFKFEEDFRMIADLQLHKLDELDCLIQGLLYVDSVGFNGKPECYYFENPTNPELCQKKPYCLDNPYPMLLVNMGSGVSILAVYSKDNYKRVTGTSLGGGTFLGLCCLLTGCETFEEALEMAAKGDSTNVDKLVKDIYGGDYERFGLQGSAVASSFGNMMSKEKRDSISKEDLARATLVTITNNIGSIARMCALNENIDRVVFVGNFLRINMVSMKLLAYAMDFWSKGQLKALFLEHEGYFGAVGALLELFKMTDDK
UniProt Q9UKK3: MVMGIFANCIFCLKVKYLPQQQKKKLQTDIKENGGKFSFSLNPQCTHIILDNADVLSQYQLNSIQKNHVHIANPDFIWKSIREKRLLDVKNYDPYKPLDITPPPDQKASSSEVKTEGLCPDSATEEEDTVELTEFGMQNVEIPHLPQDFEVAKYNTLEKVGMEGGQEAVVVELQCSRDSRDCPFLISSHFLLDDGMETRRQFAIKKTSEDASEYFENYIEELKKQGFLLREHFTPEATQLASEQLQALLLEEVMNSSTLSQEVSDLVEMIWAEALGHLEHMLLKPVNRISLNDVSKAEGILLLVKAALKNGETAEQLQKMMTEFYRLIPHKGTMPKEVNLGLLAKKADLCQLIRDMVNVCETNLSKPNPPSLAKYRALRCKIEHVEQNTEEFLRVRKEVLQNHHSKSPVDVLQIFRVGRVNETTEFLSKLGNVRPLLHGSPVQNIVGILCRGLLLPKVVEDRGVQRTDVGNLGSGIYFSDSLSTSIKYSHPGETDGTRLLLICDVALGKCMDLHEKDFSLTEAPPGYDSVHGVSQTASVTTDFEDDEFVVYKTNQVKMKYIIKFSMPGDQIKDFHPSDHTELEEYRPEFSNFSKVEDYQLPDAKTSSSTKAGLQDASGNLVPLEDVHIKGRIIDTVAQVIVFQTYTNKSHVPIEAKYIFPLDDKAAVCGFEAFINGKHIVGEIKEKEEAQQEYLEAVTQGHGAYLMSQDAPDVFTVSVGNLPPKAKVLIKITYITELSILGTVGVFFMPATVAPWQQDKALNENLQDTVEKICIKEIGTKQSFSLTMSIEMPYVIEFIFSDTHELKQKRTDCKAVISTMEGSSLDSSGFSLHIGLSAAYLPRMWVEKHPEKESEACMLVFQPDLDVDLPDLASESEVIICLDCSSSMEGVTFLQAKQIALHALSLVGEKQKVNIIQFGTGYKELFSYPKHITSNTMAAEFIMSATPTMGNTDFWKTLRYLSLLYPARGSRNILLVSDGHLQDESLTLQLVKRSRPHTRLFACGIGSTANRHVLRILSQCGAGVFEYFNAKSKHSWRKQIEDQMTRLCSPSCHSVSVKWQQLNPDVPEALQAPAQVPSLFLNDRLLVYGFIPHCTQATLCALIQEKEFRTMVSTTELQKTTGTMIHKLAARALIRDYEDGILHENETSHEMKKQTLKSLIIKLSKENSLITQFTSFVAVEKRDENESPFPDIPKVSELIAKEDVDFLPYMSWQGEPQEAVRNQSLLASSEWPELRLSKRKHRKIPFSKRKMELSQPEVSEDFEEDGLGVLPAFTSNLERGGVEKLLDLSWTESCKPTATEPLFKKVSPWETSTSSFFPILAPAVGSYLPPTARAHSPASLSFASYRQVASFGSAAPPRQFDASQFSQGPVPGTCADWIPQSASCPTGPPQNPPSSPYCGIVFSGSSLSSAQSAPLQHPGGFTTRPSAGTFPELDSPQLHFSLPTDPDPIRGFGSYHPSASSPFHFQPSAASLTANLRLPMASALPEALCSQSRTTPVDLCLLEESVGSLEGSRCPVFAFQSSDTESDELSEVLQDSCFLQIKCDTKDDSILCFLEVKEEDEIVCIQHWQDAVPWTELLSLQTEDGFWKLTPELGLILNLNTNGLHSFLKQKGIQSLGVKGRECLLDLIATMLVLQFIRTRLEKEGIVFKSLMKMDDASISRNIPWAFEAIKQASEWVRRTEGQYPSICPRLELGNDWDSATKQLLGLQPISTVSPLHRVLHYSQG
UniProt Q504Q3: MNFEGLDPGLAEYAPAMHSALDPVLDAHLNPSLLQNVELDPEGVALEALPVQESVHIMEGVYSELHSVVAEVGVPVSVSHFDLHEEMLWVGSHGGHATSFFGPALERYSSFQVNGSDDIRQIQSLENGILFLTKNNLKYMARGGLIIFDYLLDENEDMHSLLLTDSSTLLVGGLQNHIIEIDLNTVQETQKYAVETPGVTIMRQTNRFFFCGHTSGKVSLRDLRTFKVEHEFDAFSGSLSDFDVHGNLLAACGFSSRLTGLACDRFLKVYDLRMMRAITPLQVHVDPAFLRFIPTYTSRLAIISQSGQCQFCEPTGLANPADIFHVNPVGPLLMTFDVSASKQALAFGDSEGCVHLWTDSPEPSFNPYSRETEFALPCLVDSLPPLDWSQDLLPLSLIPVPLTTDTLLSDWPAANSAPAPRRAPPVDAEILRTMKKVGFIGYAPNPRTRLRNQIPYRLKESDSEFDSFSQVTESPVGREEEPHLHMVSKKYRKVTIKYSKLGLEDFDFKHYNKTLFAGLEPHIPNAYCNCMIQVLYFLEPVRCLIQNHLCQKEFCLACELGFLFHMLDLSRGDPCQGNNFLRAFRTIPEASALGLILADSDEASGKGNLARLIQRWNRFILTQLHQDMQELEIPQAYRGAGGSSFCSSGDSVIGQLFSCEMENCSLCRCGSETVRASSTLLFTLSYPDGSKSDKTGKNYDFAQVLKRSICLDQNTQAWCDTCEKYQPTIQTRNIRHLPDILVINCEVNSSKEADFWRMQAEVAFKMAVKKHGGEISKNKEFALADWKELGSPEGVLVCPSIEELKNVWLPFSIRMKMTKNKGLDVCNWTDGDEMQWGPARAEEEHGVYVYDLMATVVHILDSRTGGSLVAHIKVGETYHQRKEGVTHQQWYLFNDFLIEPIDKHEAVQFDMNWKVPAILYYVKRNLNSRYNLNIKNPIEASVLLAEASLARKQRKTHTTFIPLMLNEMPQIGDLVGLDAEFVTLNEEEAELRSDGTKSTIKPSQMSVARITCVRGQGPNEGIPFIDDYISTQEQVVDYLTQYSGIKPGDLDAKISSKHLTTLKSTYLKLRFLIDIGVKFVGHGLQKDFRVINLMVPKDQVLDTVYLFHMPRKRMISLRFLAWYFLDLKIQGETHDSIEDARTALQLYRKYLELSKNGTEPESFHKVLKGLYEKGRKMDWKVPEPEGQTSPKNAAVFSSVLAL
UniProt Q86U42: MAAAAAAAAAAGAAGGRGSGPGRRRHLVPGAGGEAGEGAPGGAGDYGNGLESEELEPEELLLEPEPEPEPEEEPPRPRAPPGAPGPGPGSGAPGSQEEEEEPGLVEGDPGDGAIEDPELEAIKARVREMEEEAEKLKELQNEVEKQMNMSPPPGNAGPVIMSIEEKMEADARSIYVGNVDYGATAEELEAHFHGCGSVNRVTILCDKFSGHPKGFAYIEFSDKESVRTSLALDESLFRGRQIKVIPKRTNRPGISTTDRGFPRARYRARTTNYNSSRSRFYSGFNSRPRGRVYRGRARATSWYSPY
UniProt Q08174: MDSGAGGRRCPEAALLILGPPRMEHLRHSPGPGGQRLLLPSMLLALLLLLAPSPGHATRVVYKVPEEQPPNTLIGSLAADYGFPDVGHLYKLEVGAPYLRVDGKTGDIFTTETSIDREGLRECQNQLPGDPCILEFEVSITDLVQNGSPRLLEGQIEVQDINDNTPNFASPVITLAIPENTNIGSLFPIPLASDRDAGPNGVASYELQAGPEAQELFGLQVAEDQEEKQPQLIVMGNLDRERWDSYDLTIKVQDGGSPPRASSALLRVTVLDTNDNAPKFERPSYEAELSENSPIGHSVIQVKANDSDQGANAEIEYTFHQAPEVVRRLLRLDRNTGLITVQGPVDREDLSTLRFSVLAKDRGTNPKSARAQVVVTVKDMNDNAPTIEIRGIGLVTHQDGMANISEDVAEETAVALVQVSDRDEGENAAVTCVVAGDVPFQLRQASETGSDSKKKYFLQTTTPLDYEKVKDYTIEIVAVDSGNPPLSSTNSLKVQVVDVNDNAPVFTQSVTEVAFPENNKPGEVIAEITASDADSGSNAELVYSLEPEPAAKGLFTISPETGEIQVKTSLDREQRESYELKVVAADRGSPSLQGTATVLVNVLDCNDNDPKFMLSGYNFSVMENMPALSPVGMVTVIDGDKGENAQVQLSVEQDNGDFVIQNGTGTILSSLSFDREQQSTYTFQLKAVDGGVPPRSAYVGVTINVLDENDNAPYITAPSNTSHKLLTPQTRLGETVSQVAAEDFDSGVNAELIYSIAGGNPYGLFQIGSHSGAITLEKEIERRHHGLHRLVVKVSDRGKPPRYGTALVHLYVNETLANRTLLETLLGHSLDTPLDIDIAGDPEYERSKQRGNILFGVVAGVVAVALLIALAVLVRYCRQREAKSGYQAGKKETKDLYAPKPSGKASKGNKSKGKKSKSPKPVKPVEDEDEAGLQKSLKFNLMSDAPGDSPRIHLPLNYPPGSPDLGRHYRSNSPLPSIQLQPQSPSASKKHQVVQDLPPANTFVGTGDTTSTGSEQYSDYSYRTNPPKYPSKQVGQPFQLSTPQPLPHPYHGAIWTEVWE
UniProt Q58A45: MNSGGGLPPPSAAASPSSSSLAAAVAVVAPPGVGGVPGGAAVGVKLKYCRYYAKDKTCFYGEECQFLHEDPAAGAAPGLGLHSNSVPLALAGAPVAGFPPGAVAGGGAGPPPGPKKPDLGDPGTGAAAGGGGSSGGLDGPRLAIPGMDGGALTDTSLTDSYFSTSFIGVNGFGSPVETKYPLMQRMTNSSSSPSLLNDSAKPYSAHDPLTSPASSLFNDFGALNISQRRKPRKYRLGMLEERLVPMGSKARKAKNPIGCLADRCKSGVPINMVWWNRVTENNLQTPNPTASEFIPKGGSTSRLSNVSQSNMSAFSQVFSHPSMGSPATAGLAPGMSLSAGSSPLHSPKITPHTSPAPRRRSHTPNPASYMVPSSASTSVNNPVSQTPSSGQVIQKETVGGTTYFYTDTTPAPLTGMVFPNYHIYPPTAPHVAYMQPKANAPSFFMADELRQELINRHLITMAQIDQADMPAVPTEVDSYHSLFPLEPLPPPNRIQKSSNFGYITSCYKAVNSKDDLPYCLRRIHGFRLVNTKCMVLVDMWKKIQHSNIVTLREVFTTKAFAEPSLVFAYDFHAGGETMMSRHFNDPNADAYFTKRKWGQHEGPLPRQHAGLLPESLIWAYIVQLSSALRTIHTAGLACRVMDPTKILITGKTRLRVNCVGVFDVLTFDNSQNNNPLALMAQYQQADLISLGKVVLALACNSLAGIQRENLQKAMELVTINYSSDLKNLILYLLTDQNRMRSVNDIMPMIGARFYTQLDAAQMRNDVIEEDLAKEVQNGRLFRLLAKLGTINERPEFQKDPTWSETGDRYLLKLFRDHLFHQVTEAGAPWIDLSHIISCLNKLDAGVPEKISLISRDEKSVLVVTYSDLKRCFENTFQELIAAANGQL

Key:
Assay in all cases: log2 fold change, soluble protein after heating vs DMSO (PISA); higher = thermal stabilisation; K562 cells, 10 uM, 30 min; active = over 0.2 and 3.5 SD of the protein, either way, in both replicates (recomputed)
[1] = compound: CC(=O)c1cnc2ccc(-c3cc(Cl)c(O)c(Cl)c3)nc2c1N[C@H]1CC[C@H](CN(C)C)CC1
Outline: (§1)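 Thermal stability values are relative to control samples and come from duplicates. They are expressed as log2 fold changes. For measurement, K562 cells (2×10^6 cells/mL) received 10 μM compound for 30 min, and aliquots were heated for 3 min over 48°C-58°C, pooled, and extracted at 4°C in PBS with 0.5% NP-40. Soluble protein, the supernatant after 21,000xg for 90 min, was quantified by TMTpro 16plex LC-MS/MS with equalised channel sums.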

[2] = compound: CC1=C(C2=C(C=C1)C(=O)C3=CC=CC=C3N2CCCN)C
Outline: as §1

[3] = compound: CC1=C(C=C(C=C1)NC(=O)C2=CC(=CC=C2)C(C)(C)C#N)NC3=CC4=C(C=C3)N=CN(C4=O)C
Outline: as §1

[4] = compound: CC1=CC=C(C=C1)SC2=C3C=C(SC3=CN=C2)C(=O)N
Outline: as §1

[5] = compound: CCCS(=O)(=O)Nc1ccc(F)c(C(=O)c2c[nH]c3ncc(Cl)cc23)c1F
Outline: as §1

[6] = compound: CCCc1cc(C)[nH]c(=O)c1CNC(=O)c1cc(-c2ccnc(N3CCN(C)CC3)c2)cc2c1cnn2C(C)C
Outline: as §1

[7] = compound: CC1=C(C(CC(=O)N1)C2=CC=C(C=C2)C(F)(F)F)C(=O)NC3=C(C=C4C(=C3)C=NN4)F
Outline: as §1

[8] = compound: C=CC(=O)N1CCC[C@@H](n2nc(-c3ccc(Oc4ccccc4)cc3)c3c(N)ncnc32)C1 [ibrutinib]
Outline: as §1

[9] = compound: CC(C)(C)Cn1c(N)nc2ccc(-c3[nH]c(C(C)(C)C)nc3-c3ccc(F)cc3)nc21 [ralimetinib]
Outline: as §1

[10] = compound: CC(C)(O)CC(=O)NCCn1ccc2ncnc(Nc3ccc(Oc4cccc(C(F)(F)F)c4)c(Cl)c3)c21
Outline: as §1

[11] = compound: CC(C)C1=C2N=C(C=C(N2N=C1)NCC3=CC=CC=C3)NCCCCCCN
Outline: as §1

[12] = compound: CC(C)C[C@@H](C=O)NC(=O)[C@H](CC(C)C)NC(=O)[C@H](CC(C)C)NC(=O)OCc1ccccc1
Outline: as §1

[13] = compound: CC1=C(C=C(C=C1)NC(=O)C2=CC(=CC=C2)N(C)C)NC(=O)C3=CC=C(C=C3)O
Outline: as §1

[14] = compound: CCCCN(Cc1ccc(C(=O)NO)cc1)C(=O)Nc1ccccc1 [Nexturastat A]
Outline: as §1

[15] = compound: CCCS(=O)(=O)Nc1ccc(F)c(C(=O)c2c[nH]c3ncc(-c4ccc(Cl)cc4)cc23)c1F [vemurafenib]
Outline: as §1

[16] = compound: CCN(CC)Cc1ccc2cc(COC(=O)Nc3ccc(C(=O)NO)cc3)ccc2c1 [givinostat]
Outline: as §1

[17] = compound: CCN(CCCOc1ccc2c(Nc3cc(CC(=O)Nc4cccc(F)c4)[nH]n3)ncnc2c1)CCOP(=O)(O)O [barasertib]
Outline: as §1

[18] = compound: C1COCCN1CCN2C3=CC=CC=C3N=C2NC(=O)C4=CC(=CC=C4)[N+](=O)[O-] [IRAK-1-4 Inhibitor I]
Outline: as §1

[19] = compound: CC(C)N(C[C@H]1O[C@@H](n2cnc3c(N)ncnc32)[C@H](O)[C@@H]1O)[C@H]1C[C@@H](CCc2nc3cc(C(C)(C)C)ccc3[nH]2)C1 [pinometostat]
Outline: as §1

[20] = compound: CC1=NC(=CC=C1)C2=C(N=C(N2)C(C)(C)C)C3=CC4=NC=CN=C4C=C3
Outline: as §1

Measured: log2 fold change

PEX10 isoform 2 (UniProt O60683)
inactive: [1] -0.138 | [2] -0.103 | [3] -0.002 | [4] 0.143 | [5] -0.011 | [6] 0.02

PAPOLA (UniProt G3XAH6)
inactive: [7] 0.088

PANK1 (UniProt Q8TE04)
inactive: [8] -0.021 | [1] -0.093 | [9] 0.028 | [10] -0.021 | [11] -0.064 | [12] -0.033 | [7] 0.078 | [2] 0.038 | [3] -0.03 | [13] 0.02 | [4] 0.003 | [14] -0.085 | [15] 0.026 | [5] -0.011 | [6] 0.031 | [16] 0.039 | [17] 0.021

PACSIN3 (UniProt Q9UKS6)
inactive: [18] -0.446 | [9] -0.046 | [10] 0.163 | [11] 0.116 | [12] 0.117 | [19] 0.169 | [13] -0.005 | [20] -0.371 | [14] 0.207 | [16] -0.055

PARP4 (UniProt Q9UKK3)
inactive: [3] -0.357

PCM1 isoform 2 (UniProt Q15154)
inactive: [3] -0.354 | [6] -0.3

PAN2 (UniProt Q504Q3)
inactive: [8] -0.134 | [15] -0.128 | [17] 0.088

PAICS (UniProt D6RF62)
inactive: [1] -0.063 | [9] -0.211 | [12] 0.331 | [13] 0.14 | [4] -0.179 | [5] -0.399

PABPN1 (UniProt Q86U42)
inactive: [8] 0.088 | [6] 0.077 | [17] -0.101

PCDH1 isoform 2 (UniProt Q08174)
inactive: [2] -0.096 | [3] -0.129

PAN3 (UniProt Q58A45)
inactive: [9] -0.052 | [12] 0.087 | [13] 0.101

PDE4DIP (UniProt E9PS60)
inactive: [18] -0.183 | [11] 0.171 | [19] 0.178 | [20] 0.013 | [15] -0.214 | [16] 0.016
